For experiment [1], the target named is NEMO, endogenous in MT-2 cells (human (endogenous in MT-2)) (UniProt Q9Y6K9). Put plainly: co-IP; lysates from MT-2 cells treated with SU 1498 and leupeptin (20 uM) for 24 h; control IgG or anti-NEMO immunoprecipitates; endogenous proteins.
Experiment [2] deals with kinase insert domain receptor (KDR), endogenous in HTLV-1-transformed T-cell lines (human (endogenous in C8166, MT-2, HUT-102)) (UniProt P35968). In words: co-IP; membrane fractions from C8166 and MT-2 cells; control IgG, anti-Tax or anti-KDR immunoprecipitates; endogenous proteins.
Experiment [3] shares this target. Put plainly: proximity ligation; in situ PLA (Duolink In Situ Red, mouse/rabbit) on fixed, permeabilized C8166 and HUT-102 cells with anti-KDR (rabbit) and anti-Tax (mouse).
In experiment [4] the target is hKDR (GFP-KDR), kinase insert domain receptor fused to GFP (human) (UniProt P35968). In words: co-IP; lysates of 293T cells transfected with Tax and KDR-GFP plasmids; anti-KDR and reciprocal anti-Tax immunoprecipitates; Dynabeads Protein G.
Experiment [5] addresses HTLV-1 Tax oncoprotein, expressed from the pCMV4-Tax plasmid (HTLV-1) (UniProt P03409). Described as above.
The target of experiment [6] is HTLV-1 Tax oncoprotein, endogenous in HTLV-1-transformed T-cell lines (HTLV-1 (endogenous in C8166, MT-2, HUT-102)) (UniProt P03409). In words: co-IP; membrane fractions from C8166 and MT-2 cells; control IgG, anti-Tax or anti-KDR immunoprecipitates; endogenous proteins.

Results are given in words; binding and its absence hold for the method and conditions named. In cells and extracts the contact can be indirect. Some binding calls cover weakened binding; strength is not graded here.

For “HTLV-1 Tax oncoprotein, endogenous in HTLV-1-transformed T-cell lines (from UniProt P03409 1-353)”, the binding entry in experiment [1], in experiment [2] and in experiment [3] was “binds” in each case.

Consider “HTLV-1 Tax oncoprotein, expressed from the pCMV4-Tax plasmid (from UniProt P03409 1-353)”, for which the binding result in experiment [4] is “binds”. For the substance “hKDR (GFP-KDR), kinase insert domain receptor fused to GFP (from UniProt P35968 20-1356)”, the binding entry in experiment [5] is “binds”. Consider “kinase insert domain receptor (KDR), endogenous in HTLV-1-transformed T-cell lines (from UniProt P35968 20-1356)”, for which the binding entry in experiment [6] is on record as “binds”.

Values taken from publication PMC11199648.
